Among the data in the supplement of paper PMC10849652 are log2 fold change values, retold here.

By UniProt entry, the sequences of proteins in these tests, tags left out. Where a name states a change or a piece, a line headed by the entry shows the natural chain unless it says otherwise.
UniProt P04632: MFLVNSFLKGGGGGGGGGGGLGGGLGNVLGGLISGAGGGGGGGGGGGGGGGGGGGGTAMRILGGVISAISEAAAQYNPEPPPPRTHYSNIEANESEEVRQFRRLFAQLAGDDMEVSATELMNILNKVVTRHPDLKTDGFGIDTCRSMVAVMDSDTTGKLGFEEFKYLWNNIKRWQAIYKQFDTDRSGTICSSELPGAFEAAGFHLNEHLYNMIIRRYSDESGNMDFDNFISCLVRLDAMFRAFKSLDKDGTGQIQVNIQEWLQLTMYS
UniProt Q9NSG2: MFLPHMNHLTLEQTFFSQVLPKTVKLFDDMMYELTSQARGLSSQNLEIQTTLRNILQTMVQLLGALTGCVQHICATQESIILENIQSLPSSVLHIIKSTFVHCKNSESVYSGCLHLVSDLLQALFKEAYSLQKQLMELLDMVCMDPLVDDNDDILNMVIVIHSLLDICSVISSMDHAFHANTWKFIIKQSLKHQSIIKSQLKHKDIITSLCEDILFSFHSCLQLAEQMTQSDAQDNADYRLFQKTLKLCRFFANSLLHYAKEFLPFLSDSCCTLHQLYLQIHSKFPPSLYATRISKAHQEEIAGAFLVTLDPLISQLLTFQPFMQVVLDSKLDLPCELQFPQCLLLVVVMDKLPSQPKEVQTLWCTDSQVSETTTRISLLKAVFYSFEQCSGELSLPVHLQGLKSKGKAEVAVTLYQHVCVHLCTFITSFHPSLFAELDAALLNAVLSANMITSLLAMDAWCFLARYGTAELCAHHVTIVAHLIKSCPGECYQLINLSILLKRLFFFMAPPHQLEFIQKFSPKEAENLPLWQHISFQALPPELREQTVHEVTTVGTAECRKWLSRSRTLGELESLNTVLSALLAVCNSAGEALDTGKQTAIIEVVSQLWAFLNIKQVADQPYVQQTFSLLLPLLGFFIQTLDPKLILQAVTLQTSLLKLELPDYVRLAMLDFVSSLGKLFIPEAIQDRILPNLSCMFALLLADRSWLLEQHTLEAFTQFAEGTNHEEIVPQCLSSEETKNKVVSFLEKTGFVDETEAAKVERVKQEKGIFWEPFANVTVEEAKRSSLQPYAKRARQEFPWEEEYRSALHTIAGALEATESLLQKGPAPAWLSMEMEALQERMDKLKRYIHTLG
UniProt Q86VG3: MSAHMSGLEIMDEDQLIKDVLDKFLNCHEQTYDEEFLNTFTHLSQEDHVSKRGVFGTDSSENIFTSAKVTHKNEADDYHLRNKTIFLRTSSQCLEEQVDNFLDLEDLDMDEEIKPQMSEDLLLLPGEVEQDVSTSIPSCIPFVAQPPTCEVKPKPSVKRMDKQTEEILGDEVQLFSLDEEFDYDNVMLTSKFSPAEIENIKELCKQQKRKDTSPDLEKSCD
UniProt Q9GZU0: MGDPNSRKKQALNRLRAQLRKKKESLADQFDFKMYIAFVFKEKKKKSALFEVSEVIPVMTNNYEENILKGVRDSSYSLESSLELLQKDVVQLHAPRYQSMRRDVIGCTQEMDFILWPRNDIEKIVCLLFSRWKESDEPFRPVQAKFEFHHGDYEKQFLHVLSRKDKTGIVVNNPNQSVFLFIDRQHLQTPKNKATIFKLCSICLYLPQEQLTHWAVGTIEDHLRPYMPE
UniProt Q16581: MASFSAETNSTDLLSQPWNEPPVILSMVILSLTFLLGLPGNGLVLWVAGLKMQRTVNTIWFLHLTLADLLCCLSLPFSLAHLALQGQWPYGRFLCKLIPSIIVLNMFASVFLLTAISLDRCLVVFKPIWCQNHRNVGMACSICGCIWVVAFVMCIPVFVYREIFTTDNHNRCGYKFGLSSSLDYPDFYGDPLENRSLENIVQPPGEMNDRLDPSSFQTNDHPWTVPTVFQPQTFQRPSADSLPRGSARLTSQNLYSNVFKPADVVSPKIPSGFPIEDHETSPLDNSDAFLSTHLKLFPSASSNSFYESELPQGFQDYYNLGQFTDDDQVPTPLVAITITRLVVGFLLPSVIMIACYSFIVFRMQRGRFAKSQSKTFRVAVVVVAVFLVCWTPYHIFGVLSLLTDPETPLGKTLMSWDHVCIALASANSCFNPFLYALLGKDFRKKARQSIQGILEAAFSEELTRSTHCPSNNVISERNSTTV
UniProt Q13936, whole entry, looked up: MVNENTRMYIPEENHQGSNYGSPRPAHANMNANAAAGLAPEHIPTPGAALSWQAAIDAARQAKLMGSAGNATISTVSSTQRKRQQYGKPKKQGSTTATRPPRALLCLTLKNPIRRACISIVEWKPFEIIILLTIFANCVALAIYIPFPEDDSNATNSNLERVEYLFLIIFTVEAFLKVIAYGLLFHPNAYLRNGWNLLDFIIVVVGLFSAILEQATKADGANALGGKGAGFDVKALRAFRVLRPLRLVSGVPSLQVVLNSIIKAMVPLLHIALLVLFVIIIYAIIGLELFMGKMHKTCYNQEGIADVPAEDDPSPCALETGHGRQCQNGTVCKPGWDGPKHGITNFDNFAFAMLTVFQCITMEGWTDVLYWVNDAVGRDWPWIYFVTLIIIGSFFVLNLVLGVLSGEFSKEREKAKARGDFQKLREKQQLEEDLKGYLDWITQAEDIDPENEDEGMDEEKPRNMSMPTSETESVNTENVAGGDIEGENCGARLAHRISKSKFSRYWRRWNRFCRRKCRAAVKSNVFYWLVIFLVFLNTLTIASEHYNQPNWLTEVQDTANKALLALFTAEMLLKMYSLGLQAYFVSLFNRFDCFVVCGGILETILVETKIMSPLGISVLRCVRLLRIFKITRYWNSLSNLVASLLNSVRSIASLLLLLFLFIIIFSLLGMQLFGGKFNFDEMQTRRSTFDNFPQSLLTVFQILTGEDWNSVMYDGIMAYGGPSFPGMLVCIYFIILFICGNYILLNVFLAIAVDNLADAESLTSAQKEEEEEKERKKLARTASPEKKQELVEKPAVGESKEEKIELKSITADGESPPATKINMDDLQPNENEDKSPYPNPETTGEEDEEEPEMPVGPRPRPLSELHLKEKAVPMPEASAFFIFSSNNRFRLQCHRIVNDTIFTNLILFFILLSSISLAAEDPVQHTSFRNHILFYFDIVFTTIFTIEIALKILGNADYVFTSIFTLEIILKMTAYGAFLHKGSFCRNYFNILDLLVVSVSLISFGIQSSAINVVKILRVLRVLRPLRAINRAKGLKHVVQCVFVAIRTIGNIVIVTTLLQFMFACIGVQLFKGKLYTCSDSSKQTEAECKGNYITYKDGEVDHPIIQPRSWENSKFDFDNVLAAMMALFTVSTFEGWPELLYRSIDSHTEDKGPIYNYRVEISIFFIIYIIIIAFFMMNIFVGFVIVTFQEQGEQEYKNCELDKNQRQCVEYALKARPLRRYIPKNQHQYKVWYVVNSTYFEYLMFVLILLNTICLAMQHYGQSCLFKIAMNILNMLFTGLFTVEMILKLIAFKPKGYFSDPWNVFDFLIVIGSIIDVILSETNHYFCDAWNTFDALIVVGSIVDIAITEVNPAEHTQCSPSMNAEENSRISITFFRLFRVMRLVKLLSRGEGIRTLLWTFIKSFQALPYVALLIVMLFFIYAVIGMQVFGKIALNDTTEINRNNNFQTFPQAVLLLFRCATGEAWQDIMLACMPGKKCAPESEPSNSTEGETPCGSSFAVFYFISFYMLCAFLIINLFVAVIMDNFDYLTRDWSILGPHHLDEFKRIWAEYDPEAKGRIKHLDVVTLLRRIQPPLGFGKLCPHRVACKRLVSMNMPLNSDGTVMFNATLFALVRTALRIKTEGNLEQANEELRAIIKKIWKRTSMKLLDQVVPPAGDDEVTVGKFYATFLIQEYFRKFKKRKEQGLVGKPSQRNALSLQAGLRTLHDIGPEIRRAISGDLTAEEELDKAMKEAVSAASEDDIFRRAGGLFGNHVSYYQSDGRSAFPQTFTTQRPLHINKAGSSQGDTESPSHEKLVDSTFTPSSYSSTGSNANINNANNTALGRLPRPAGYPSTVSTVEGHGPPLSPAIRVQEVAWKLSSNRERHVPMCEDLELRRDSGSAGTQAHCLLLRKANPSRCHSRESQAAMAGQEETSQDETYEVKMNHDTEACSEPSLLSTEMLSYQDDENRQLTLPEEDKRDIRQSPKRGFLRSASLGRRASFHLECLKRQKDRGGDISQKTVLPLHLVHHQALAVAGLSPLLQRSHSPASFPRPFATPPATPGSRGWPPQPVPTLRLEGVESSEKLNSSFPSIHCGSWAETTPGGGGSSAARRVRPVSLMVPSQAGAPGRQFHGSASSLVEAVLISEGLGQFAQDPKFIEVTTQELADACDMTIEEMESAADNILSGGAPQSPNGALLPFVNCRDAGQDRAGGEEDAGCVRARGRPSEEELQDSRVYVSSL
UniProt Q32NC0: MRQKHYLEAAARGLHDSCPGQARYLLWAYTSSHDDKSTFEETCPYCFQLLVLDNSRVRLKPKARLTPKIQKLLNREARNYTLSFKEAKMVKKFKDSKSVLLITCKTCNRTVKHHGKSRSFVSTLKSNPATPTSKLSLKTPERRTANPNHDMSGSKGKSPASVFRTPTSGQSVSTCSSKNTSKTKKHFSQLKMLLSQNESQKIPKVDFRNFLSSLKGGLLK
UniProt Q01518, whole entry, looked up: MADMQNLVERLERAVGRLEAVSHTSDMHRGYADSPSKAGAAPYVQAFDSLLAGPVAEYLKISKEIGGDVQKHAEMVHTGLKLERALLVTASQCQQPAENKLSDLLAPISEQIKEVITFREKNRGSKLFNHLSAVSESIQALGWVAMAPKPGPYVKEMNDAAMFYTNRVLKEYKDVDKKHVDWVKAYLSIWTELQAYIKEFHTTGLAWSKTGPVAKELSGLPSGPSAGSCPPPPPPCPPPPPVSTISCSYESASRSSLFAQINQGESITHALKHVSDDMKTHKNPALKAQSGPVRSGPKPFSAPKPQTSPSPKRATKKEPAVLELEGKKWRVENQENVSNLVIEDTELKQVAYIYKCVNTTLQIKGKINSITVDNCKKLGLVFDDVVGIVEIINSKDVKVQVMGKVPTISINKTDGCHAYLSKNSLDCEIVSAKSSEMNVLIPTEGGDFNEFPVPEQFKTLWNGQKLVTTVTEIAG
UniProt Q96B23: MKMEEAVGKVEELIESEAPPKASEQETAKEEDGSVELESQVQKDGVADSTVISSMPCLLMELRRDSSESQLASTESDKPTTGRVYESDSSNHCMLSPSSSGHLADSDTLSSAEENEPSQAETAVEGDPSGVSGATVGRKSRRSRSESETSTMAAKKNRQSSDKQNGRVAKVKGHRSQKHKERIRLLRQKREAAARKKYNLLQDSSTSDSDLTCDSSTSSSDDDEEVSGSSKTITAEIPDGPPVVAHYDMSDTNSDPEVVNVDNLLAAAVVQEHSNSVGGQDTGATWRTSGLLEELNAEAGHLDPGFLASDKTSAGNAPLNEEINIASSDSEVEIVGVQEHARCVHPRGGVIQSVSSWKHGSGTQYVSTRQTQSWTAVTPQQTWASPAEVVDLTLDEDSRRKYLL
UniProt Q8IYL3: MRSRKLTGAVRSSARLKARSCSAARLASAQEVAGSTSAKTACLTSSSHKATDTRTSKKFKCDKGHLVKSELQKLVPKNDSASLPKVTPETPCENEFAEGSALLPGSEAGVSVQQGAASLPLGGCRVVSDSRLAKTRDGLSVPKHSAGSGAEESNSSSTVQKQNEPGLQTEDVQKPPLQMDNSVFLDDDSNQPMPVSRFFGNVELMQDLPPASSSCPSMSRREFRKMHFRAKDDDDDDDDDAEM
UniProt Q9NWQ9: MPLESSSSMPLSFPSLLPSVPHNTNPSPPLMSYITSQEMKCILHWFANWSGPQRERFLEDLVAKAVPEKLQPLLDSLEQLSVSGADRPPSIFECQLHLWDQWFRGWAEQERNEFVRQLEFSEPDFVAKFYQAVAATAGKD
UniProt Q9NX04: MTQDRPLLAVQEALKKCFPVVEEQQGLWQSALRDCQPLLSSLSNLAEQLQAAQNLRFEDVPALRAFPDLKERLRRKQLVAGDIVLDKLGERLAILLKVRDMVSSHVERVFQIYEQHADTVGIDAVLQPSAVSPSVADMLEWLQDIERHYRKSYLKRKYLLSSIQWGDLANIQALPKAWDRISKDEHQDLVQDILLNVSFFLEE
UniProt Q96HA4: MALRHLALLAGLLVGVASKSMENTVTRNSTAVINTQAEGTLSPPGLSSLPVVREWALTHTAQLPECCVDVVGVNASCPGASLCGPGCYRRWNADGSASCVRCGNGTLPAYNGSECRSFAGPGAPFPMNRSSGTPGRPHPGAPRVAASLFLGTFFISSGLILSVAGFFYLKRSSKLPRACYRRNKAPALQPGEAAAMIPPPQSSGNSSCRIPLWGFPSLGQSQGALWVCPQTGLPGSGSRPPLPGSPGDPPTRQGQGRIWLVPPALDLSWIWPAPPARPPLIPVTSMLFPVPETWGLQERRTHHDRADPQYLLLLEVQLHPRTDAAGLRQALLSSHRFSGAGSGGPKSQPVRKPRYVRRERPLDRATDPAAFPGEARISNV
UniProt Q7Z4R8: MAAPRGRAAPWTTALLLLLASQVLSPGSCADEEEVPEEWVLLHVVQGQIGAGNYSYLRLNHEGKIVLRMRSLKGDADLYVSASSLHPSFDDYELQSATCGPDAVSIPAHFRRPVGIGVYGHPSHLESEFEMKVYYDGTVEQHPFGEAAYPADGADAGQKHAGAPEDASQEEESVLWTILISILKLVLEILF

Some of the results follow.

Holding throughout (assay): log2 fold change, soluble protein after heating vs DMSO (PISA); higher = thermal stabilisation; K562 lysate, 10 uM; active = over 0.2 and 3.5 SD of the protein, either way, in both replicates (recomputed)
Compound in experiment [1]: NCC(=O)Nc1ccc(-n2nc(C(F)(F)F)cc2-c2ccc3c(ccc4ccccc43)c2)cc1
An outline of the steps: (§1)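 Log-two fold change in thermal stability relative to solvent controls is reported from duplicates. For each sample, crude K562 extract from dounce-homogenised pellets in PBS pH 7.4 with 1 mM MgCl2, at 1 mg/mL protein, was treated with 10 μM compound for 30 min. Aliquots heated for 3 min across 48°C-58°C were pooled, brought to 0.5% NP-40 at 4°C and cleared at 21,000xg for 90 min. The supernatant was quantified by TMTpro 16plex LC-MS/MS with channel sums equalised.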

Compound in another experiment: O=C(CCCCCCC(=O)Nc1ccccc1)NO [vorinostat]
An outline of the steps:
as §1

Compound in the next experiment: O=C(O)c1ccc2c(c1)nc(Nc1cccc(Cl)c1)c1ccncc12 [silmitasertib]
An outline of the steps:
as §1

Compound in experiment [2]: O=C1NC(=O)C(c2cnc3ccccn23)=C1c1cn2c3c(cc(F)cc13)CN(C(=O)N1CCCCC1)CC2
The gist of the method:
as §1

Compound in a further experiment: c1cn2cc(-c3ccc4cn[nH]c4c3)nc(Nc3ccc(N4CCOCC4)cc3)c2n1 [entospletinib]
An outline of the steps:
as §1

For CAPNS1 (UniProt P04632), the log2 fold change in experiment [1] is inactive: -0.08; with vorinostat, inactive: 0.07; with silmitasertib, inactive: -0.007; in experiment [2], inactive: -0.039; with entospletinib, inactive: 0.033.

With C12orf29 (UniProt Q8N999), the log2 fold change in experiment [1] was inactive: 0.029; with vorinostat, inactive: -0.218; with silmitasertib it was inactive: 0.026; in experiment [2], inactive: 0.003; with entospletinib, inactive: -0.041.

Turning to C1orf112 (UniProt Q9NSG2), the log2 fold change in experiment [1] is inactive: -0.075; with vorinostat, inactive: -0.095; in the experiment with silmitasertib, inactive: -0.084; in experiment [2], inactive: 0.003; with entospletinib it was inactive: -0.037.

For the target C11orf74 (UniProt Q86VG3), the log2 fold change was inactive: 0.006 in experiment [1]; inactive: -0.067 in the experiment with vorinostat; inactive: -0.028 with silmitasertib; inactive: -0.075 in experiment [2]; inactive: -0.001 with entospletinib.

C17orf53 (UniProt Q8N3J3): the log2 fold change is inactive: -0.253 with vorinostat, inactive: -0.086 with silmitasertib and inactive: 0.047 in experiment [2].

As to C6orf62 (UniProt Q9GZU0), the log2 fold change was inactive: -0.097 in experiment [1] and inactive: -0.197 in experiment [2].

For C3AR1 (UniProt Q16581), in experiment [2], the log2 fold change was inactive: -0.013.

In the case of CAPN1 (UniProt E9PLX0), the log2 fold change in experiment [1] is inactive: 0.039; in experiment [2], inactive: -0.186; with entospletinib, inactive: -0.14.

Turning to CARD6 (UniProt Q9BX69), the log2 fold change is inactive: -0.036 in experiment [1] and inactive: 0.143 in experiment [2].

As for CACNA1C isoform 2 (UniProt Q13936), the log2 fold change in the experiment with vorinostat is inactive: -0.082; in the experiment with silmitasertib it was inactive: 0.028.

For the target C18orf21 (UniProt Q32NC0), the log2 fold change with vorinostat was inactive: -0.039; with silmitasertib it was inactive: -0.045; in experiment [2] it was inactive: 0.093.

C9orf72 (UniProt Q96LT7): the log2 fold change with vorinostat was active: 0.919; in the experiment with silmitasertib, inactive: -0.045; in experiment [2], inactive: -0.015; in the experiment with entospletinib, inactive: -0.129.

CAP1 isoform 2 (UniProt Q01518): the results for the log2 fold change (in the experiment with vorinostat; with silmitasertib; in experiment [2]) were inactive: 0.214, inactive: -0.012 and inactive: 0.054, respectively.

For the target CA1 (UniProt E5RIF9), in the experiment with entospletinib, the log2 fold change was inactive: -0.458.

CAND1 (UniProt F5H6I6): the log2 fold change with vorinostat is inactive: 0.097; with silmitasertib it was inactive: -0.135; in experiment [2], inactive: 0.152; with entospletinib it was inactive: -0.075.

With C12orf4 (UniProt Q9NQ89), the log2 fold change is inactive: -0.425 with vorinostat, inactive: 0.071 with silmitasertib, inactive: 0.027 in experiment [2] and inactive: 0.102 with entospletinib.

Turning to C18orf25 isoform 2 (UniProt Q96B23), the log2 fold change in experiment [1] is inactive: -0.014; with vorinostat, inactive: -0.034; with silmitasertib, inactive: -0.067; with entospletinib it was inactive: 0.038.

Turning to CABIN1 (UniProt Q9Y6J0), the log2 fold change in experiment [1] was inactive: -0.027; with vorinostat it was inactive: -0.325; with silmitasertib, inactive: 0.041; with entospletinib, inactive: -0.033.

For CAP1 (UniProt Q5T0R8), the results for the log2 fold change with vorinostat and in the experiment with silmitasertib were inactive: -0.352 and inactive: -0.294, respectively.

In the case of C2orf88 (UniProt Q9BSF0), in experiment [2], the log2 fold change was inactive: 0.034.

Take C11orf96 (UniProt Q7Z7L8): the figures for the log2 fold change (with vorinostat; with silmitasertib; in experiment [2]) were inactive: -0.074, inactive: -0.052 and inactive: 0.036, respectively.

On to C15orf39 (UniProt Q6ZRI6), for which the log2 fold change in the experiment with vorinostat was active: -0.513; in the experiment with silmitasertib, inactive: 0.008; in experiment [2] it was inactive: -0.025; with entospletinib it was inactive: -0.147.

For the target C1RL (UniProt Q9NZP8), the log2 fold change with entospletinib is inactive: 0.129.

Turning to BTRC (UniProt Q9Y297), the log2 fold change in experiment [1] is inactive: 0.03; with vorinostat it was active: -0.342; with silmitasertib, inactive: 0.035; with entospletinib, inactive: -0.004.

As to C19orf12 (UniProt Q9NSK7), the log2 fold change was inactive: -0.018 in experiment [2] and inactive: 0.008 with entospletinib.

For C22orf39 (UniProt Q6P5X5), the log2 fold change in experiment [1] was inactive: -0.252; in the experiment with entospletinib it was inactive: 0.281.

For the target BUD13 (UniProt Q9BRD0), the log2 fold change in the experiment with vorinostat was inactive: 0.136; with silmitasertib it was inactive: 0.054; in experiment [2], inactive: 0.036; with entospletinib it was inactive: -0.046.

As for C1orf174 (UniProt Q8IYL3), the log2 fold change in experiment [1] was inactive: -0.015; in experiment [2], inactive: -0.019.

For the target C14orf119 (UniProt Q9NWQ9), in experiment [2], the log2 fold change was inactive: -0.036.

Turning to C11orf24 (UniProt Q96F05), in experiment [2], the log2 fold change is inactive: 0.063.

With C1orf109 (UniProt Q9NX04), the log2 fold change with vorinostat is inactive: -0.056; with silmitasertib it was inactive: 0.092; in experiment [2], inactive: -0.027; with entospletinib, inactive: 0.026.

For C1orf159 isoform 4 (UniProt Q96HA4), the log2 fold change with entospletinib is inactive: -0.355.

Consider C16orf87 (UniProt Q6PH81), for which the log2 fold change was inactive: 0.015 in experiment [1], inactive: 0.091 in experiment [2] and inactive: -0.034 with entospletinib.

In the case of C5orf34 (UniProt Q96MH7), the log2 fold change was inactive: 0.166 in experiment [1], inactive: -0.045 with vorinostat, inactive: 0.015 with silmitasertib and inactive: 0.073 with entospletinib.

Regarding C6orf120 (UniProt Q7Z4R8), the log2 fold change with vorinostat is inactive: 0.273; with silmitasertib it was inactive: -0.075.
